This passage reports NP40-soluble protein abundance results from the supplement of paper PMC6411743.

In the assay the target is T1, CSTF2T (UniProt Q9H0L4).
T1 sequence (whole entry): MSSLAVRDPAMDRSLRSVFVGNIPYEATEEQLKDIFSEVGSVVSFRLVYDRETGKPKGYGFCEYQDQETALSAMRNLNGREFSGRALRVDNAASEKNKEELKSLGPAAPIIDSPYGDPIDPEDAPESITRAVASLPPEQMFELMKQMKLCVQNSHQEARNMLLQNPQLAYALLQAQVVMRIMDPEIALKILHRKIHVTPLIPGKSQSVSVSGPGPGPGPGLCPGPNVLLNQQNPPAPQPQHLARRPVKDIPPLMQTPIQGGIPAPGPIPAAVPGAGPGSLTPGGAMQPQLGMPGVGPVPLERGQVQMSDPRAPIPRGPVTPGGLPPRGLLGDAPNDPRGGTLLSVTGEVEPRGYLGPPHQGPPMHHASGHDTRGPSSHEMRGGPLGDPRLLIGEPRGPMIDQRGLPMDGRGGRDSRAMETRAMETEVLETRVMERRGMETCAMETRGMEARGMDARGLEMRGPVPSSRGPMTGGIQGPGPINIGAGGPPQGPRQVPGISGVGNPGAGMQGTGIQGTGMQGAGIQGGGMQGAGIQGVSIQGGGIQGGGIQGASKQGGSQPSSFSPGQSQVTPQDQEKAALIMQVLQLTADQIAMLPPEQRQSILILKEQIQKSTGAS
Put plainly: NP40-soluble protein abundance relative to vehicle (solubility fold change) (ratio); higher = more soluble protein in presence of GTP. Here is the method: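 Solubility proteome profiling in Jurkat crude lysate. Lysate was treated with Mg-GTP (0.1-10 mM) for 10 min at room temperature and 3 min at 37 °C, then solubilised with 0.8% NP40 and benzonase, followed by ultracentrifugation. Proteins were quantified by TMT10 LC-MS/MS; the value is the NP40-soluble abundance relative to the NP40-processed vehicle, from 3 independent experiments.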

± gives the standard deviation of the averaged measurements. Some of the results follow.

With `Nc1nc2c(ncn2[C@@H]2O[C@H](COP(=O)(O)OP(=O)(O)OP(=O)(O)O)[C@@H](O)[C@H]2O)c(=O)[nH]1` [guanosine triphosphate], the NP40-soluble protein abundance was determined as 0.972 ± 0.025 (concentration: 0.1mM); 0.925 ± 0.02 (concentration: 0.5mM); 1.04 ± 0.051 (concentration: 1mM); 1.04 ± 0.02 (concentration: 2mM); 1.03 ± 0.048 (concentration: 4mM); 1.04 ± 0.035 (concentration: 6mM). The NP40-soluble protein abundance (concentration: 8mM) worked out at 1.08 ± 0.05 and the NP40-soluble protein abundance (concentration: 10mM) turned out to be 1.07 ± 0.07.
